Assay results reported in paper PMC12650272.
These are yes or no findings as the source states them, for the method shown. In cells and extracts the contact can be indirect. Some results given as binding are weak or reduced against the parent protein; the word gives no strength. Tags and fused reporters may be left off the sequences shown.

The chains behind the UniProt entries cited, without tags or fusion partners. Where a name states a change or a piece, a line headed by the entry shows the natural chain unless it says otherwise.
UniProt P03372: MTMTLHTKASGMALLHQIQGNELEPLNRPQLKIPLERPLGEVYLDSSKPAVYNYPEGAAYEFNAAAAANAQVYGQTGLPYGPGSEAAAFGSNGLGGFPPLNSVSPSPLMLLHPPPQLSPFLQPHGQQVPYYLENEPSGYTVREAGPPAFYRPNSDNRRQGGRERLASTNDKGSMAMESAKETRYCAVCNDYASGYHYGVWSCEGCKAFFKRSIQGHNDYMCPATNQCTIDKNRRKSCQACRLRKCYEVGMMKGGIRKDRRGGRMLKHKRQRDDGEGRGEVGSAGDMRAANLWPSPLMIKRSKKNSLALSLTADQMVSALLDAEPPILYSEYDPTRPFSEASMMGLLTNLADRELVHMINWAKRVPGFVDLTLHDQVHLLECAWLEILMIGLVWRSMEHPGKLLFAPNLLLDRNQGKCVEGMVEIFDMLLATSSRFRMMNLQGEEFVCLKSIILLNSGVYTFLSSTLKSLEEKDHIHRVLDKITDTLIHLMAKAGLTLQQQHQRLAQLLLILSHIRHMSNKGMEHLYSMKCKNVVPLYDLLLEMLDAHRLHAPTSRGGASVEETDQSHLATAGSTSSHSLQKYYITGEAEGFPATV

Target: estrogen receptor α (ERα) (human (endogenous in ER-positive BRCA cells, MCF-7 / T47D)) (UniProt P03372)
Assay: co-IP; endogenous IP from ER-positive BRCA cells; lysis in RIPA buffer with protease inhibitors, antibody 12 h at 4 °C, protein A/G beads, Western blot; MG132 added in the IP experiments

- binding: binds
B1: STAM binding protein (STAMBP) (enzyme, UniProt O95630 1-424)
chain: MSDHGDVSLPPEDRVRALSQLGSAVEVNEDIPPRRYFRSGVEIIRMASIYSEEGNIEHAFILYNKYITLFIEKLPKHRDYKSAVIPEKKDTVKKLKEIAFPKAEELKAELLKRYTKEYTEYNEEKKKEAEELARNMAIQQELEKEKQRVAQQKQQQLEQEQFHAFEEMIRNQELEKERLKIVQEFGKVDPGLGGPLVPDLEKPSLDVFPTLTVSSIQPSDCHTTVRPAKPPVVDRSLKPGALSNSESIPTIDGLRHVVVPGRLCPQFLQLASANTARGVETCGILCGKLMRNEFTITHVLIPKQSAGSDYCNTENEEELFLIQDQQGLITLGWIHTHPTQTAFLSSVDLHTHCSYQMMLPESVAIVCSPKFQETGFFKLTDHGLEEISSCRQKGFHPHSKDPPLFCSCSHVTVVDRAVTITDLR
